No constants are given. Whether binding was seen depends on the method and setting. Binding seen in cells or lysates may run through a third protein. For some of these results: A result given as binding can be weak or reduced; the word gives no strength.
What was measured:
[1] = target: Myc-tagged Activin Receptor II B (ActRIIB-pDest-C-Myc) (human) (UniProt Q13705); test: co-IP; KM12 cells transfected with ActRIIB alone, BMPR2 alone, or both; lysates precipitated with anti-Myc or anti-Flag antibody; endogenous BMP3 detected by western blot
[2] = target: Flag-tagged Bone Morphogenetic Protein receptor 2 (BMPR2-pENER-C-Flag) (human) (UniProt Q13873); test: as above
[3] = target: Myc-tagged Activin Receptor II B (ActRIIB-pDest-C-Myc) (human) (UniProt Q13705); test: co-IP; BMP3 co-expressed with ActRIIB or BMPR2 in HCT116 cells, 48 h; lysates precipitated with anti-Myc or anti-Flag antibody; western blot
[4] = target: Flag-tagged Bone Morphogenetic Protein receptor 2 (BMPR2-pENER-C-Flag) (human) (UniProt Q13873); test: as above

Protein sequences, listed by entry. Tags and fused reporters are not part of them. Lines headed by an entry give the natural chain unless they say otherwise; changes in a name come on top. Residues count along the entry.
UniProt Q13705, residues 19-512: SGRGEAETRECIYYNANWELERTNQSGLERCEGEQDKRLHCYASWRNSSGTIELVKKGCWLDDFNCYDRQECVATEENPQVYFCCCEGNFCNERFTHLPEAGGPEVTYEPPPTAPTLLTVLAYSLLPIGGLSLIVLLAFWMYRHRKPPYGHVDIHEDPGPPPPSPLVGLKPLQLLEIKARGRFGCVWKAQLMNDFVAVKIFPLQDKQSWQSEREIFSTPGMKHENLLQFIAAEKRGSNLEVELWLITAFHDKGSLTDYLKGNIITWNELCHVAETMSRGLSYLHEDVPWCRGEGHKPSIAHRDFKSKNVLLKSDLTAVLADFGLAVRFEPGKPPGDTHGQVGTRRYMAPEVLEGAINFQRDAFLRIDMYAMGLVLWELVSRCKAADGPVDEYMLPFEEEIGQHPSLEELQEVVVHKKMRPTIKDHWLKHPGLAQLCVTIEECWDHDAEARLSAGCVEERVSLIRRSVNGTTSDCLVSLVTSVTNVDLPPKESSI
UniProt Q13873, residues 27-1038: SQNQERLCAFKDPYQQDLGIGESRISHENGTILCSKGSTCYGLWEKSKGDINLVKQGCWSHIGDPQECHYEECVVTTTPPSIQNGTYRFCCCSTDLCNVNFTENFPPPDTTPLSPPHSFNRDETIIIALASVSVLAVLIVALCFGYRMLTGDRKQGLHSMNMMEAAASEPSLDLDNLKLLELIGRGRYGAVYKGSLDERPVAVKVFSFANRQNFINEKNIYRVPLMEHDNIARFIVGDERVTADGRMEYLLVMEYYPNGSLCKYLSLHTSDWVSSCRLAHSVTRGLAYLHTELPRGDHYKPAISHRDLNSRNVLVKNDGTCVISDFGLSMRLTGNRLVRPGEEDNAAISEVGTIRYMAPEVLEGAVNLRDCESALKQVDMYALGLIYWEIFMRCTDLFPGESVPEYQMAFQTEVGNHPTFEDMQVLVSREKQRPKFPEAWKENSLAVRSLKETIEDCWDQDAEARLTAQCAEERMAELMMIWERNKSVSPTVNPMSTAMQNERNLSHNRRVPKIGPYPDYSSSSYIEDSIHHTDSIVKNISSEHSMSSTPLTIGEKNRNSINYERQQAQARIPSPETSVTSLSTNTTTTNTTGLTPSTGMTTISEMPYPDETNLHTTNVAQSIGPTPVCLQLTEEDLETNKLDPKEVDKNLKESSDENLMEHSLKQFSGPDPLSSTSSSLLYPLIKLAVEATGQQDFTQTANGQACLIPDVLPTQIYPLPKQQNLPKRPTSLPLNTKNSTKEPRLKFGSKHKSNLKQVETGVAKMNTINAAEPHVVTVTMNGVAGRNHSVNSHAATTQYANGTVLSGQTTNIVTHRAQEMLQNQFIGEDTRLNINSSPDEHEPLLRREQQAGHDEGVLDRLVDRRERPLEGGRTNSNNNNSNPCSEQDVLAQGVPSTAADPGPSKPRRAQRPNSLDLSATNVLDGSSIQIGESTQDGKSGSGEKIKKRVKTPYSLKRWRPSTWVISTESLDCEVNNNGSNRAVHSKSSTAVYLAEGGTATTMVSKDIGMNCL
UniProt P12645: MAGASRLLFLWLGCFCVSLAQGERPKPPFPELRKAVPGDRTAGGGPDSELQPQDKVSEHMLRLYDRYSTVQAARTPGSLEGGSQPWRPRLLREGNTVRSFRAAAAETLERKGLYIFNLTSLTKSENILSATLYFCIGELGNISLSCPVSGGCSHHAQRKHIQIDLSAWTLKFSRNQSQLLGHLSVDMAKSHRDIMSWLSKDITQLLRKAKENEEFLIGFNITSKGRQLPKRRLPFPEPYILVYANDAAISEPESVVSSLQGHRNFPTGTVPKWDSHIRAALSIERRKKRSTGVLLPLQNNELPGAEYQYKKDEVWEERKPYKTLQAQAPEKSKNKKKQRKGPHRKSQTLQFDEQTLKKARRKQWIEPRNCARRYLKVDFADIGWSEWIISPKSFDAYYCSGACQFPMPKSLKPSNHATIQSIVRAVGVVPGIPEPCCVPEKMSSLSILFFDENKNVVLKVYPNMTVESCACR

| binding [1] | binding [2] | binding [3] | binding [4] | Substance |
| --- | --- | --- | --- | --- |
| binds | no binding | – | – | Bone Morphogenetic Protein 3 (endogenous, KM12 cells) (from UniProt P12645) (ligand) |
| – | – | binds | no binding | Bone Morphogenetic Protein 3 (exogenous, stably expressed in HCT116 cells) (from UniProt P12645) (ligand) |
